Earlier results, collected in article PMC8983078 (Drug Discovery Today, 2022).

Tests used:
[1] = patient with long-term administration of a daily low dose; cited from earlier work
[2] = rats; might be linked to the induction of PLD; cited from earlier work

## CCCCc1oc2ccccc2c1C(=O)c1cc(I)c(OCCN(CC)CC)c(I)c1 [amiodarone]
[1]
  liver toxicity: induce liver cirrhosis accompanying PLD
[2]
  pulmonary toxicity: pulmonary toxicity
